This is an account of results in PMC3476979.

This experiment deals with wild-type Tax protein of Human T-lymphotropic virus type 1 (HTLV-1), C-terminal 6His tag (Tax-His) (Human T-lymphotropic virus type 1 (HTLV-1)) (UniProt P03409). As to the kind of experiment: co-IP; HeLa cells transfected with Tax-His constructs, 24 h; lysis in 50 mM Tris-HCl pH8, 1% NP40, 0.5% deoxycholate, 0.1% SDS, 150 mM NaCl; IP with the anti-Tax mab overnight at 4°C, protein G-sepharose; blot with anti-NEMO.

These are yes or no findings as the source states them, for the method shown. In cells and extracts the contact can be indirect. Some results given as binding are weak or reduced against the parent protein; the word gives no strength.

As for “NF-κB essential modulator (NEMO)/IKKγ, endogenous (from UniProt Q9Y6K9 1-419)”, the binding entry was “binds”.
